# Data published in the supplement of paper PMC8728848.
# The other results are listed elsewhere or left out.
# Key:
# Test in all cases: glycan array binding signal (z-score within array); higher = stronger binding
# Conditions in all cases: glycan notation: IUPAC condensed, linker removed
# [1] = target: Neu5Ac(a2-3)Gal
# In short: (§1)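 Negative Z-scores can be read as non-binding. The Z-score is calculated within each array and then averaged across arrays of one protein sequence at different concentrations or buffers and across linkers. Arrays, 3228 in all, were curated from the Consortium for Functional Glycomics database and kept only where the protein sequence was available.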
# [2] = target: Neu5Ac(a2-3)Gal(b1-3)GalNAc
# In short: as §1
# [3] = target: Neu5Ac(a2-3)Gal(b1-3)GalNAc(b1-3)Gal(a1-4)Gal(b1-4)Glc
# In short: as §1
# [4] = target: Neu5Ac(a2-3)Gal(b1-3)GalNAc(b1-4)[Neu5Ac(a2-3)]Gal(b1-4)Glc
# In short: as §1
# [5] = target: Neu5Ac(a2-3)Gal(b1-3)GalNAc(b1-4)[Neu5Ac(a2-8)Neu5Ac(a2-3)]Gal(b1-4)Glc
# In short: as §1
# [6] = target: Neu5Ac(a2-3)Gal(b1-3)GalNAc6S
# In short: as §1
# [7] = target: Neu5Ac(a2-3)Gal(b1-3)GlcNAc
# In short: as §1
# [8] = target: Neu5Ac(a2-3)Gal(b1-3)GlcNAc(b1-2)Man
# In short: as §1
# [9] = target: Neu5Ac(a2-3)Gal(b1-3)GlcNAc(b1-2)Man(a1-3)[GlcNAc(b1-4)][Neu5Ac(a2-3)Gal(b1-3)GlcNAc(b1-2)Man(a1-6)]Man(b1-4)GlcNAc(b1-4)GlcNAc
# In short: as §1
# [10] = target: Neu5Ac(a2-3)Gal(b1-3)GlcNAc(b1-2)Man(a1-3)[Neu5Ac(a2-3)Gal(b1-3)GlcNAc(b1-2)Man(a1-6)]Man(b1-4)GlcNAc(b1-4)GlcNAc
# In short: as §1
# [11] = target: Neu5Ac(a2-3)Gal(b1-3)GlcNAc(b1-3)Gal(b1-3)GlcNAc
# In short: as §1
# [12] = target: Neu5Ac(a2-3)Gal(b1-3)GlcNAc(b1-3)Gal(b1-4)GlcNAc
# In short: as §1
# [13] = target: Neu5Ac(a2-3)Gal(b1-3)GlcNAc(b1-3)GalNAc
# In short: as §1
# [14] = target: Neu5Ac(a2-3)Gal(b1-3)GlcNAc(b1-4)Gal(b1-4)Glc
# In short: as §1
# [15] = target: Neu5Ac(a2-3)Gal(b1-3)GlcNAc(b1-6)GalNAc
# In short: as §1
# [16] = target: Neu5Ac(a2-3)Gal(b1-3)GlcNAc6S
# In short: as §1
# [17] = target: Neu5Ac(a2-3)Gal(b1-3)[Fuc(a1-4)]GlcNAc
# In short: as §1
# [18] = target: Neu5Ac(a2-3)Gal(b1-3)[Fuc(a1-4)]GlcNAc(b1-3)Gal(b1-3)[Fuc(a1-4)]GlcNAc
# In short: as §1
# [19] = target: Neu5Ac(a2-3)Gal(b1-3)[Fuc(a1-4)]GlcNAc(b1-3)Gal(b1-4)[Fuc(a1-3)]GlcNAc
# In short: as §1
# [20] = target: Neu5Ac(a2-3)Gal(b1-3)[GlcNAc(b1-6)]GalNAc
# In short: as §1
# [21] = target: Neu5Ac(a2-3)Gal(b1-3)[Neu5Ac(a2-3)Gal(b1-4)]GlcNAc
# In short: as §1
# [22] = target: Neu5Ac(a2-3)Gal(b1-3)[Neu5Ac(a2-6)]GalNAc
# In short: as §1
# [23] = target: Neu5Ac(a2-3)Gal(b1-3)[Neu5Ac(a2-6)]GlcNAc(b1-3)[Fuc(a1-3)[Gal(b1-4)]GlcNAc(b1-6)]Gal(b1-4)Glc
# In short: as §1
# [24] = target: Neu5Ac(a2-3)Gal(b1-3)]Neu5Ac(a2-3)Gal(b1-4)]GlcNAc
# In short: as §1
# [25] = target: Neu5Ac(a2-3)Gal(b1-4)Glc
# In short: as §1
# [26] = target: Neu5Ac(a2-3)Gal(b1-4)GlcNAc
# In short: as §1
# [27] = target: Neu5Ac(a2-3)Gal(b1-4)GlcNAc(b1-2)Man
# In short: as §1
# [28] = target: Neu5Ac(a2-3)Gal(b1-4)GlcNAc(b1-2)Man(a1-3)[GlcNAc(b1-2)Man(b1-4)GlcNAc(b1-2)Man(a1-6)]Man(b1-4)GlcNAc(b1-4)GlcNAc
# In short: as §1
# [29] = target: Neu5Ac(a2-3)Gal(b1-4)GlcNAc(b1-2)Man(a1-3)[GlcNAc(b1-4)][Neu5Ac(a2-3)Gal(b1-4)GlcNAc(b1-2)Man(a1-6)]Man(b1-4)GlcNAc(b1-4)GlcNAc
# In short: as §1
# [30] = target: Neu5Ac(a2-3)Gal(b1-4)GlcNAc(b1-2)Man(a1-3)[Neu5Ac(a2-3)Gal(b1-4)GlcNAc(b1-2)Man(a1-6)]Man(b1-4)GlcNAc(b1-4)GlcNAc
# In short: as §1
# [31] = target: Neu5Ac(a2-3)Gal(b1-4)GlcNAc(b1-2)Man(a1-3)[Neu5Ac(a2-3)Gal(b1-4)GlcNAc(b1-2)Man(a1-6)]Man(b1-4)GlcNAc(b1-4)[Fuc(a1-6)]GlcNAc
# In short: as §1
# [32] = target: Neu5Ac(a2-3)Gal(b1-4)GlcNAc(b1-2)Man(a1-3)[Neu5Ac(a2-6)Gal(b1-4)GlcNAc(b1-2)Man(a1-6)]Man(b1-4)GlcNAc(b1-4)GlcNAc
# In short: as §1
# [33] = target: Neu5Ac(a2-3)Gal(b1-4)GlcNAc(b1-2)[Neu5Ac(a2-3)Gal(b1-4)GlcNAc(b1-4)]Man(a1-3)[GlcNAc(b1-4)][Neu5Ac(a2-3)Gal(b1-4)GlcNAc(b1-2)[Neu5Ac(a2-3)Gal(b1-4)GlcNAc(b1-6)]Man(a1-6)]Man(b1-4)GlcNAc(b1-4)GlcNAc
# In short: as §1
# [34] = target: Neu5Ac(a2-3)Gal(b1-4)GlcNAc(b1-2)[Neu5Ac(a2-3)Gal(b1-4)GlcNAc(b1-4)]Man(a1-3)[GlcNAc(b1-4)][Neu5Ac(a2-3)Gal(b1-4)GlcNAc(b1-4)Man(a1-6)]Man(b1-4)GlcNAc(b1-4)GlcNAc
# In short: as §1
# [35] = target: Neu5Ac(a2-3)Gal(b1-4)GlcNAc(b1-2)[Neu5Ac(a2-3)Gal(b1-4)GlcNAc(b1-6)]Man(a1-6)[Neu5Ac(a2-3)Gal(b1-4)GlcNAc(b1-2)Man(a1-3)]Man(b1-4)GlcNAc(b1-4)GlcNAc
# In short: as §1
binder,measurement,setting,value
"Gal 12 (Homo sapiens), Q96DT0 (protein) MSQPSGGRAPGTRIYSWSCPTVMSPGEKLDPIPDSFILQPPVFHPVVPYVTTIFGGLHAGKMVMLQGVVPLDAHRFQVDFQCGCSLCPRPDIAFHFNPRFHTTKPHVICNTLHGGRWQREARWPHLALRRGSSFLILFLFGNEEVKVSVNGQHFLHFRYRLPLSHVDTLGIFGDILVEAVGFLNINPFVEGSREYPAGHPFLLMSPRLEVPCSHALPQGLSPGQVIIVRGLVLQEPKHFTVSLRDQAAHAPVTLRASFADRTLAWISRWGQKKLISAPFLFYPQRFFEVLLLFQEGGLKLALNGQGLGATSMNQQALEQLRELRISGSVQLYCVHS",glycan array binding signal (z-score),[1],-0.039
same,glycan array binding signal (z-score),[2],-0.079
same,glycan array binding signal (z-score),[3],-0.606
same,glycan array binding signal (z-score),[4],0.416
same,glycan array binding signal (z-score),[5],-0.646
same,glycan array binding signal (z-score),[6],-0.649
same,glycan array binding signal (z-score),[7],-0.241
same,glycan array binding signal (z-score),[8],0.245
same,glycan array binding signal (z-score),[9],-0.466
same,glycan array binding signal (z-score),[10],0.608
same,glycan array binding signal (z-score),[11],-0.55
same,glycan array binding signal (z-score),[12],-0.421
same,glycan array binding signal (z-score),[13],-0.063
same,glycan array binding signal (z-score),[14],0.109
same,glycan array binding signal (z-score),[15],0.019
same,glycan array binding signal (z-score),[16],-0.109
same,glycan array binding signal (z-score),[17],-0.301
same,glycan array binding signal (z-score),[18],-0.082
same,glycan array binding signal (z-score),[19],0.115
same,glycan array binding signal (z-score),[20],0.381
same,glycan array binding signal (z-score),[21],-0.578
same,glycan array binding signal (z-score),[22],-0.587
same,glycan array binding signal (z-score),[23],-0.207
same,glycan array binding signal (z-score),[24],0.199
same,glycan array binding signal (z-score),[25],-0.562
same,glycan array binding signal (z-score),[26],-0.736
same,glycan array binding signal (z-score),[27],0.109
same,glycan array binding signal (z-score),[28],-0.006
same,glycan array binding signal (z-score),[29],1.22
same,glycan array binding signal (z-score),[30],2.18
same,glycan array binding signal (z-score),[31],-0.456
same,glycan array binding signal (z-score),[32],-0.383
same,glycan array binding signal (z-score),[33],0.22
same,glycan array binding signal (z-score),[34],-0.135
same,glycan array binding signal (z-score),[35],2.06

# No new results follow: entries from further up.
binder,measurement,setting,value
"Gal 12 (Homo sapiens), Q96DT0 (protein) MSQPSGGRAPGTRIYSWSCPTVMSPGEKLDPIPDSFILQPPVFHPVVPYVTTIFGGLHAGKMVMLQGVVPLDAHRFQVDFQCGCSLCPRPDIAFHFNPRFHTTKPHVICNTLHGGRWQREARWPHLALRRGSSFLILFLFGNEEVKVSVNGQHFLHFRYRLPLSHVDTLGIFGDILVEAVGFLNINPFVEGSREYPAGHPFLLMSPRLEVPCSHALPQGLSPGQVIIVRGLVLQEPKHFTVSLRDQAAHAPVTLRASFADRTLAWISRWGQKKLISAPFLFYPQRFFEVLLLFQEGGLKLALNGQGLGATSMNQQALEQLRELRISGSVQLYCVHS",glycan array binding signal (z-score),[33],0.22
same,glycan array binding signal (z-score),[34],-0.135
